Assay: peptide synthesis
Settings: whole synthesis

Row | Substance | purity (crude or final not stated) [%]
1 | Oxyntomodulin | 91
2 | Exendin-4 | 98
3 | H-HSQGTFTSDYSKYLDRARADDFVAWLKST-NH2 | 90

Source: patent publication US7994122B2 (Zealand Pharma A/S, priority 2007, dated 2011)
